The source of these data is the supplement of paper PMC7858590.

± gives the standard deviation of the averaged measurements. Over roughly 3,800 compounds, “cell shape (eccentricity) Z-score vs DMSO control” has its median near 1.1; the lowest 2% begin near -4.7. Some of the results follow.

The subject of this assay is human monocyte-derived macrophages (M0). Nature of the assay: cell shape (eccentricity) Z-score vs DMSO control; higher = more elongated, M2-like morphology. To be noted: 20 µM; 24 h; macrophage state: M0 (M-CSF).
Turning to `CCOc1cc(/C=C(/C#N)C(N)=O)cc(CSc2ccccc2)c1O`, the “cell shape (Z-score)” value came to 2.62.
For `CCCc1c(-c2ccc(O)cc2)nn(-c2ccc(O)cc2)c1-c1ccc(O)cc1`, the “cell shape (Z-score)” value amounted to 2.99.
`COc1ccc(-c2nc(C(=O)N3CCN(C)CC3)sc2-c2ccc(OC)cc2)cc1`: the “cell shape (Z-score)” value came out at 0.472.
`CNNCc1ccc(C(=O)NC(C)C)cc1`: the “cell shape (Z-score)” value turned out to be 2.01.
In the case of `C#CC1(O)CCC2C3CCC4=Cc5oncc5CC4(C)C3CCC21C` (stereo not given) it was 5.13; in that of `CC(=O)[C@H]1CCC2C3CCC4=CC(=O)CC[C@]4(C)C3[C@H](OC(=O)CCC(=O)O)C[C@@]21C` (stereo not given in full), 0.421.
In the case of `Cc1cc(O)c2c(c1)C(=O)OC2c1c(O)cccc1O` (stereo not given) it was 2.62 ± 1.9.
In the case of `O=C1c2ccccc2C(=O)C1c1ccc(Cl)cc1` it was 3.26; in that of `CC(C)Cn1c(=O)n(C)c(=O)c2nc[nH]c21`, -1.69; in that of `FC(F)(F)c1ccc(Nc2nccc(-c3cccc(Cl)c3)n2)cc1`, 2.57.
In the case of `C[C@@H]1O[C@@H](Oc2ccc3c(=O)c(-c4ccc(O)cc4)coc3c2)[C@H](O)[C@H](O)[C@H]1O`, the “cell shape (Z-score)” value is -0.761 ± 1.1.
As for `COc1cc(N)c(Cl)cc1C(=O)OCCCN1CCCCC1`, the “cell shape (Z-score)” value was 0.848.
On to `Cc1cc([C@@H](C)Nc2ccccc2C(=O)O)c2nc(N3CCOCC3)cc(=O)n2c1`, for which the “cell shape (Z-score)” value was 4.32.
As to `O=c1c(-c2ccc(O)cc2)coc2cc(O)ccc12`, the “cell shape (Z-score)” value stood at 2.92.
For `CC(C)(C(=O)NCC(F)(F)C(F)(F)F)C(=O)N[C@@H]1C(=O)Nc2ccccc2-c2ccccc21`, the “cell shape (Z-score)” value is 2.37.
Take `CC(=O)O[C@@H]1CC2C(C)(C)[C@H](O)CC[C@]2(C)C2CC[C@@]3(C)[C@H](c4ccoc4)OC(=O)C4OC43[C@@]21C` (stereo not given in full): the “cell shape (Z-score)” value amounted to 2.33.
In the case of `COc1ccc2c(c1)c(CC(=O)OCC(=O)O)c(C)n2C(=O)c1ccc(Cl)cc1` it was 2.11; in that of `COC(=O)[C@@H]1[C@H]2C[C@H]3c4[nH]c5ccccc5c4CCN3C[C@@H]2CC[C@@H]1O`, -0.402.
In the case of `COc1[nH]c(N)nc2ncnc1-2` it was 1.66; in that of `Nc1nc2ccc(OC(F)(F)F)cc2s1`, 6.29; in that of `C=C(C(=O)O)[C@@H]1CC[C@@]2(C)C=CC(=O)[C@@H](CCC3(O)C(=O)C=C[C@]4(C)CC[C@@H](C(=C)C(=O)O)C[C@@H]34)[C@@H]2C1` (stereo not given in full), 1.43.
`CCCCC/C=C/C(=O)CCc1ccc(O)c(OC)c1`: the “cell shape (Z-score)” value was -1.
In the case of `N#CC(=Cc1ccc(O)c(O)c1)C(=O)NCc1ccccc1` it was -2.23; in that of `c1ccc(-c2n[nH]cc2-c2ccnc3ccccc23)nc1`, 6.3.
In the case of `C/C(=C\CCC1(C)C2CCC(C2)C1(C)O)C(=O)O` (stereo not given) it was -2.12; in that of `O=c1c2ccccc2nc(/C=C/c2cccnc2)n1Cc1ccccc1`, -3.
As to `COc1ccc(C[C@H]2COC(=O)[C@@H]2Cc2ccc(O[C@@H]3O[C@H](CO)[C@@H](O)[C@H](O)[C@H]3O)c(OC)c2)cc1OC`, the “cell shape (Z-score)” value was 2.24.
In the case of `COc1cc(-c2coc3cc(O[C@@H]4O[C@H](CO)[C@@H](O)[C@H](O)[C@H]4O)c(OC)c(O)c3c2=O)cc(O)c1OC`, the “cell shape (Z-score)” value was 0.753.
In the case of `O=C(Nc1ccccc1)C12CC1C(=NO)c1ccccc1O2` (stereo not given) it was -0.435; in that of `CC1O[C@@H](Oc2c(-c3ccc(O)c(O)c3)oc3cc(O)cc(O)c3c2=O)[C@H](O)[C@H](O)[C@H]1O` (stereo not given in full), 1.34.
As to `C[C@H](CO)N1C[C@H](C)[C@@H](CN(C)C(=O)NC2CCCCC2)Oc2ccc(NC(=O)Cc3cn(C)c4ccccc34)cc2C1=O`, the “cell shape (Z-score)” value was found to be 4.05.
On to `COc1cccc(OC)c1C(=O)N[C@@H]1C(=O)N2[C@@H]1SC(C)(C)[C@@H]2C(=O)O`, for which the “cell shape (Z-score)” value is 1.23.
In the case of `C[C@@H]1O[C@@H](O[C@@H]2[C@@H](O)[C@H](OCCc3ccc(O)c(O)c3)O[C@H](CO[C@@H]3OC[C@](O)(CO)[C@H]3O)[C@H]2OC(=O)/C=C/c2ccc(O)c(O)c2)[C@H](O[C@@H]2OC[C@H](O)[C@H](O)[C@H]2O)[C@H](O)[C@H]1O` it was 1.71.
On to `COc1c(O)cc(-c2oc3cc(O)cc(O)c3c(=O)c2O[C@@H]2O[C@@H](C)[C@H](O)[C@@H](O)[C@H]2O)cc1O`, for which the “cell shape (Z-score)” value was 0.909.
Regarding `CN(C)CCCN1c2ccccc2Sc2ccc(Cl)cc21`, the “cell shape (Z-score)” value is 2.57.
`COc1cc(Nc2ncc(F)c(Nc3ccc4c(n3)NC(=O)C(C)(C)O4)n2)cc(OC)c1OC`: the “cell shape (Z-score)” value was 5.01.
Consider `N[C@@H]1CCCC[C@H]1N.O=C1[O][Pt][O]C1=O`, for which the “cell shape (Z-score)” value was -2.82 ± 1.4.
For the compound `c1nc(CCCC2CCNCC2)c[nH]1`, the “cell shape (Z-score)” value is -0.166.
In the case of `Cc1ccc(Nc2nccc(N(C)c3ccc4c(C)n(C)nc4c3)n2)cc1S(N)(=O)=O` it was 2.61 ± 0.72.
`Cc1[nH]c(/C=C2\C(=O)Nc3ccc(S(=O)(=O)N(C)c4cccc(Cl)c4)cc32)c(C)c1C(=O)N1CCN(C)CC1`: the “cell shape (Z-score)” value is 19.3.
In the case of `C(=NNC1=NCCN1)c1c2ccccc2c(C=NNC2=NCCN2)c2ccccc12` it was 8.02.
In the case of `CC1CCC(NC(=O)N(CCCl)[N+][O-])CC1` (stereo not given), the “cell shape (Z-score)” value was found to be 2.38.
In the case of `C[C@H](CO)N1C[C@H](C)[C@H](CN(C)Cc2ccc(Cl)c(Cl)c2)Oc2ccc(N(C)C)cc2C1=O` it was 3.69; in that of `O=C(CCc1ccc(O)cc1)CC(CCc1ccc(O)cc1)O[C@@H]1OC[C@@H](O)[C@H](O)[C@H]1O` (stereo not given in full), -1.8.
In the case of `COC(=O)[C@@H]1CC(=O)O[C@H](C)C/C=C/C=C/[C@H](O)[C@H](C)C[C@H](CC=O)[C@H](OC2O[C@H](C)[C@@H](OC3C[C@@](C)(O)[C@@H](OC(=O)CC(C)C)[C@H](C)O3)[C@H](N(C)C)[C@H]2O)[C@H]1OC` (stereo not given in full) it was -2.11.
